These are yes or no findings as the source states them, for the method shown. For some of these results: Binding can be weak; no strength is given. For some of these results: Where a sequence is shown, tags or fusion partners need not be part of it. For some of these results: In cells and extracts the contact can be indirect.
Tests used:
[1] = molecular target: T1, CYFP-ATG18A (PSAT5-c(175-END)EYFP-C1(B)-ATG18A) (Arabidopsis thaliana) (UniProt Q93VB2); assay: split reporter; BiFC in Arabidopsis leaf protoplasts; NYFP (EYFP 1-174) on FYVE3, CYFP (EYFP 175-end) on the partners; reconstituted fluorescence by confocal microscopy
T1 sequence: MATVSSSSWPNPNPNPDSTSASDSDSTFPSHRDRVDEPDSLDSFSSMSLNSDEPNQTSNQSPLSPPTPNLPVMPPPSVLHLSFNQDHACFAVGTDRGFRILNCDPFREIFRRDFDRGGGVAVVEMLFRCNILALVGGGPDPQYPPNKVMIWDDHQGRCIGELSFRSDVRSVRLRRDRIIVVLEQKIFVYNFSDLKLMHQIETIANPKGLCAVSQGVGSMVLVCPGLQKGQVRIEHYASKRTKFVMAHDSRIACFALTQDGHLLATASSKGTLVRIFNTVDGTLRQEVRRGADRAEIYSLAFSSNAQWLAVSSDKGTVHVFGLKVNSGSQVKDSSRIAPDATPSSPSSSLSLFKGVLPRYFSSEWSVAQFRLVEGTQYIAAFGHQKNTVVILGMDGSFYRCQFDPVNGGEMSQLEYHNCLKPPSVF

[2] = molecular target: T2, CYFP-ATG6 (PSAT5-c(175-END)EYFP-C1(B)-ATG6) (Arabidopsis thaliana) (UniProt Q9M367); assay: as above
T2 sequence: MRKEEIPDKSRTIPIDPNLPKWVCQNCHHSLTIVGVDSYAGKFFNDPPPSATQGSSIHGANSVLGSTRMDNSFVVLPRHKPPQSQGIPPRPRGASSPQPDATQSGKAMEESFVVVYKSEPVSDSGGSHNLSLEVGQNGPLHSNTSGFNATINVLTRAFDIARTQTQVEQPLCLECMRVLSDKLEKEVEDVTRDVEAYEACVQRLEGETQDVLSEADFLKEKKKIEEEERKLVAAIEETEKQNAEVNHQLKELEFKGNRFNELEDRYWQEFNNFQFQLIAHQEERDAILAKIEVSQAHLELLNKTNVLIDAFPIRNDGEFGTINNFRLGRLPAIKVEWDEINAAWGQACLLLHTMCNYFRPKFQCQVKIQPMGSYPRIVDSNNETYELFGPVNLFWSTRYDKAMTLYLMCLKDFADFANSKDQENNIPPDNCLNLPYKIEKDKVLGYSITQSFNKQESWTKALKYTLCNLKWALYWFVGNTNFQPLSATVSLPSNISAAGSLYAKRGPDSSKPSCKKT

[3] = molecular target: T3, CYFP-ATG8A (PSAT5-c(175-END)EYFP-C1(B)-ATG8A) (Arabidopsis thaliana) (UniProt Q8LEM4); assay: as above
T3 sequence: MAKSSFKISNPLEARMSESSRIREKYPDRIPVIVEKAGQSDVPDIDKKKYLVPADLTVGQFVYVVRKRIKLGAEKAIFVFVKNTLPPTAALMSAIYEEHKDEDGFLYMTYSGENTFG

[4] = molecular target: T4, CYFP-TRAF1A (PSAT5-c(175-END)EYFP-C1(B)-TRAF1A) (Arabidopsis thaliana) (UniProt Q8RY18); assay: as above
T4 sequence: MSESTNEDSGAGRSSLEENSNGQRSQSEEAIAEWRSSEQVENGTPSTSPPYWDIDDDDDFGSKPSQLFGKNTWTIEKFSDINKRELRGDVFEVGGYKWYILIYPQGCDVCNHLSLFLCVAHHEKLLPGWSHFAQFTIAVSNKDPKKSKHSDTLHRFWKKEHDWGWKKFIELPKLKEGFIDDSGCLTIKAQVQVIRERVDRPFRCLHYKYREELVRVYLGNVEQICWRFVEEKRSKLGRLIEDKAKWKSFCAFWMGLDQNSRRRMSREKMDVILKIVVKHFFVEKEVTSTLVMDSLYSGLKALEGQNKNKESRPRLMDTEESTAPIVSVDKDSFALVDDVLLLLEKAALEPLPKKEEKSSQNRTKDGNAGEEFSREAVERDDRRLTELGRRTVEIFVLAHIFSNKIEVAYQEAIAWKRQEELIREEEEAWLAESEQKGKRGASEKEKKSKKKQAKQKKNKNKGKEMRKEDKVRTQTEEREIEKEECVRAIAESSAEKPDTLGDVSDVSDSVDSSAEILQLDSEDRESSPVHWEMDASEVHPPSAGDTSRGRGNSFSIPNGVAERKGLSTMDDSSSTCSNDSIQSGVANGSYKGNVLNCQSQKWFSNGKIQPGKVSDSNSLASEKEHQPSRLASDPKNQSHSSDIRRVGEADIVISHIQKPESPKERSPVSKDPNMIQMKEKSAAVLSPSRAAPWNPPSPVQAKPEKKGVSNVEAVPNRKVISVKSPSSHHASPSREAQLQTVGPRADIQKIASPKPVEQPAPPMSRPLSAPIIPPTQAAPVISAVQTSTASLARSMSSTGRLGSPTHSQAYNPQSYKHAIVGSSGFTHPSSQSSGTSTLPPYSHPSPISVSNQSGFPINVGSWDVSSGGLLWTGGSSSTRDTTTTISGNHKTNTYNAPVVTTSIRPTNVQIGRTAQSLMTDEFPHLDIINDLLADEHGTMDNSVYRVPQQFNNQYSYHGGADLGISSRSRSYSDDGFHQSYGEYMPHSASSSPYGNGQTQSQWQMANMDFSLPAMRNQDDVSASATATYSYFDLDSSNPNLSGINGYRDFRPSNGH

[5] = molecular target: T5, ATG18A fused to the Gal4 binding domain (pDEST32) (Arabidopsis thaliana) (UniProt Q93VB2); assay: two-hybrid; FYVE3 as prey (Gal4AD, pDEST22), baits on Gal4BD (pDEST32); yeast strains AH109 and Y187; growth on medium lacking Trp, Leu and His with 0 and 1 mM 3-amino-1,2,4-triazole
T5 sequence: T1 sequence

[6] = molecular target: T6, ATG6 as yeast two-hybrid bait (Arabidopsis thaliana) (UniProt Q9M367); assay: as above
T6 sequence: T2 sequence

[7] = molecular target: T7, ATG8A fused to the Gal4 binding domain (pDEST32) (Arabidopsis thaliana) (UniProt Q8LEM4); assay: as above
T7 sequence: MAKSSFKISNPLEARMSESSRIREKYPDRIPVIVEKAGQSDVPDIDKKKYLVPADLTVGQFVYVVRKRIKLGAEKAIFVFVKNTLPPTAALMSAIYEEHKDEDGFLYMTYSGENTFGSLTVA

[8] = molecular target: T8, ATG8E fused to the Gal4 binding domain (pDEST32) (Arabidopsis thaliana) (UniProt Q8S926); assay: as above
T8 sequence: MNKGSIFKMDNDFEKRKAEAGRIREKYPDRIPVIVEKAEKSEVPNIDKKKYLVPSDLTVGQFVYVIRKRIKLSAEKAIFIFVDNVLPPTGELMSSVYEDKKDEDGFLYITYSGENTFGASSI

[9] = molecular target: T9, ATG8F fused to the Gal4 binding domain (pDEST32) (Arabidopsis thaliana) (UniProt Q8VYK7); assay: as above
T9 sequence: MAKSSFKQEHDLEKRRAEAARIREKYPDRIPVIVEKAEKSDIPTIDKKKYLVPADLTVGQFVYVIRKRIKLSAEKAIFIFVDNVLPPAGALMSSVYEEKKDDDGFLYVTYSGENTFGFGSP

[10] = molecular target: T10, ATG8I fused to the Gal4 binding domain (pDEST32) (Arabidopsis thaliana) (UniProt Q9LRP7); assay: as above
T10 sequence: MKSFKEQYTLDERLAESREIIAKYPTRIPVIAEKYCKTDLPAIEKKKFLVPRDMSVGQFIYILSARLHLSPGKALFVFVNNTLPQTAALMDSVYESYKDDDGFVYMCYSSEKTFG

Row | Substance | binding [1] | binding [2] | binding [3] | binding [4] | binding [5] | binding [6] | binding [7] | binding [8] | binding [9] | binding [10]
1 | NYFP-FYVE3 (PSAT4-n(1-174)EYFP-C1-FYVE3) (Arabidopsis thaliana) | binds | binds | binds | no binding | – | – | – | – | – | –
2 | FYVE3 fused to the Gal4 activation domain (pDEST22-FYVE3) (Arabidopsis thaliana) | – | – | – | – | no binding | no binding | binds | no binding | binds | no binding

Source: PMC10050702
